These results are taken from US20020137715.

Protein sequences, listed by entry. Tags and fused reporters are not part of them. Residues count along the entry.
UniProt O89090, 2-784: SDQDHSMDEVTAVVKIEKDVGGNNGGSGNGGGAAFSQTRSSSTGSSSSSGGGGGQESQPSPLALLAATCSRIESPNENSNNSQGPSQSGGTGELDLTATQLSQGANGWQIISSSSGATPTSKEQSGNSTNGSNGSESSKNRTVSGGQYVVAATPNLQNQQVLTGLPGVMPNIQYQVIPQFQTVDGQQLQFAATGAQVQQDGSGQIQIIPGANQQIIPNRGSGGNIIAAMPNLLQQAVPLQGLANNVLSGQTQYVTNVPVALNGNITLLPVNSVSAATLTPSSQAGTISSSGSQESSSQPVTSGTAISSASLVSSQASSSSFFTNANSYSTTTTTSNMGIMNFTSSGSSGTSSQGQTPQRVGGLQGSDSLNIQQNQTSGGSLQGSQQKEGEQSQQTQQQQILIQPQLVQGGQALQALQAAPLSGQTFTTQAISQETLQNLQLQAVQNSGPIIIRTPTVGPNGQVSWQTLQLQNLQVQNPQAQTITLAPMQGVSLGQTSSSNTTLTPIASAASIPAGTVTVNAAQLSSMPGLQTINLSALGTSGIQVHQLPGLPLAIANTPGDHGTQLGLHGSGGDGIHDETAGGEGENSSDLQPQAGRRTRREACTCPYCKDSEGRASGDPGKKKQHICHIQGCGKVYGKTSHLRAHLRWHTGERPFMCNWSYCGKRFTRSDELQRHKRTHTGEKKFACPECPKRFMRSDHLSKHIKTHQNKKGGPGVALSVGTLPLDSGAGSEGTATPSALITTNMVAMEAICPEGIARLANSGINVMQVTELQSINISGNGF

Data set [1] concerns the target Sp1 (UniProt O89090). Kind of data set: EMSA. As to conditions: protein details: endogenous, NIH 3T3 nuclear extract. In general terms: Mobility shift assays separate free from complexed probe on a gel.
Data set [2] concerns the target Sp1 (UniProt O89090). Kind of data set: activity in cells. The conditions noted are these: mutant decoy in vivo, no effect on COL1A2 promoter activity; protein in cells; protein details: endogenous, skin of COL1A2/lux transgenic mice; variant of consensus Sp1 oligonucleotide (decoy).

A negative result means that nothing was seen under these conditions. For part of these data: At least one result comes from cells or an extract, where the contact may be indirect.

Take “ATTCGATCGGGGCGGGGCGAGC (double strand) [consensus Sp1 oligonucleotide (decoy)]”: the binding result in the data set with Sp1 [1] (radiolabeled probe, complex supershifted by anti-Sp1 antibody, about 2% of control complex in antisense clone B, native 4% acrylamide gel, protein in an …) is given as “binds”.

For “ATTCGATCGTAGCGATGCGAGC (double strand) [mSp1 mutant oligonucleotide]”, the “activity on this sequence” value with Sp1 [2] is given as “not active”. In addition, the binding result in the data set with Sp1 [1] (stated incapable of binding Sp1 as determined in EMSA, Sp1 source for this EMSA not stated, protein in an extract, variant of consensus Sp1 oligonucleotide (decoy)) is listed as “no binding”.
